The supplement of paper PMC9233669
Variants at the background level are over-represented here.

How the values were obtained:
biotinyl-Val-oxazolone = experiment: self-aminoacylation, catalytic enhancement (BVO) (fold over background); higher = more active; k-Seq, kA / k0A0; sequences stand for … in GGGAAUGGAUCCACAUCUACGAAUUC…UUCACUGCAGACUUGACGAAGCUG
Outline: (§1)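 Mutagenized RNA pools with a 21-nt variable region (0.43 μM) were reacted with each biotinyl-aminoacyl-oxazolone at 2–1250 μM for 90 minutes at room temperature, in 50 μL HEPES/NaCl/KCl/MgCl2/CaCl2 buffer containing 5% acetonitrile at pH 6.9–7.0. RNA captured on streptavidin was quantified by triplicate qPCR and by Illumina sequencing. The fraction reacted for each sequence was fit to a pseudo-first-order model with bootstrapping, and catalytic enhancement is the median kA divided by the uncatalyzed rate, taken as the low-activity peak of a bimodal Gaussian fit.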

biotinyl-Met-oxazolone = experiment: self-aminoacylation, catalytic enhancement (BMO) (fold over background); higher = more active; k-Seq, kA / k0A0; sequences stand for … in GGGAAUGGAUCCACAUCUACGAAUUC…UUCACUGCAGACUUGACGAAGCUG
Outline: as §1

biotinyl-Trp-oxazolone = experiment: self-aminoacylation, catalytic enhancement (BWO) (fold over background); higher = more active; k-Seq, kA / k0A0; sequences stand for … in GGGAAUGGAUCCACAUCUACGAAUUC…UUCACUGCAGACUUGACGAAGCUG
Outline: as §1

biotinyl-Leu-oxazolone = experiment: self-aminoacylation, catalytic enhancement (BLO) (fold over background); higher = more active; k-Seq, kA / k0A0; sequences stand for … in GGGAAUGGAUCCACAUCUACGAAUUC…UUCACUGCAGACUUGACGAAGCUG
Outline: as §1

biotinyl-Ile-oxazolone = experiment: self-aminoacylation, catalytic enhancement (BIO) (fold over background); higher = more active; k-Seq, kA / k0A0; sequences stand for … in GGGAAUGGAUCCACAUCUACGAAUUC…UUCACUGCAGACUUGACGAAGCUG
Outline: as §1

“AACUUUGCUAAUAGUUGCAAG [Fam3.1 aminoacylation ribozyme variant]” showed a self-aminoacylation (biotinyl-Val-oxazolone) of 1.84, a self-aminoacylation (biotinyl-Met-oxazolone) of 1.88 and a self-aminoacylation (biotinyl-Trp-oxazolone) of 1.43. For the same sequence, the self-aminoacylation (biotinyl-Leu-oxazolone) was 1.58.

“AAGAUGGCUAAUAGUCGCAAG [Fam3.1 aminoacylation ribozyme variant]” gave a self-aminoacylation (biotinyl-Val-oxazolone) of 1.6, a self-aminoacylation (biotinyl-Ile-oxazolone) of 1.76 and a self-aminoacylation (biotinyl-Met-oxazolone) of 1.33. The self-aminoacylation (biotinyl-Trp-oxazolone) was 1.88 and the self-aminoacylation (biotinyl-Leu-oxazolone) was 1.42.

In the case of “AAGAUUGCUAAUAGUCGCAAC [Fam3.1 aminoacylation ribozyme variant]”, the self-aminoacylation (biotinyl-Val-oxazolone) is reported as 1.62, the self-aminoacylation (biotinyl-Ile-oxazolone) is reported as 1.64 and the self-aminoacylation (biotinyl-Met-oxazolone) is reported as 1.5. The self-aminoacylation (biotinyl-Trp-oxazolone) was 0.998 and the self-aminoacylation (biotinyl-Leu-oxazolone) was 1.62.

For “AAGCUUGCUAAUGGUCGCAAG [Fam3.1 aminoacylation ribozyme variant]”, the self-aminoacylation (biotinyl-Val-oxazolone) was 1.76, the self-aminoacylation (biotinyl-Ile-oxazolone) was 1.77 and the self-aminoacylation (biotinyl-Met-oxazolone) was 2.83. It also gave a self-aminoacylation (biotinyl-Trp-oxazolone) of 3.95 and a self-aminoacylation (biotinyl-Leu-oxazolone) of 1.83.

In the case of “AAGUAAGCUAAUAGUCGCAAG [Fam3.1 aminoacylation ribozyme variant]”, the self-aminoacylation (biotinyl-Val-oxazolone) is reported as 1.33, the self-aminoacylation (biotinyl-Ile-oxazolone) is reported as 1.55 and the self-aminoacylation (biotinyl-Met-oxazolone) is reported as 1.18. It also gave a self-aminoacylation (biotinyl-Trp-oxazolone) of 1.5 and a self-aminoacylation (biotinyl-Leu-oxazolone) of 1.43.

“AAGUAUACUAAUAGUCGCAAG [Fam3.1 aminoacylation ribozyme variant]” showed a self-aminoacylation (biotinyl-Val-oxazolone) of 1.18, a self-aminoacylation (biotinyl-Ile-oxazolone) of 1.4 and a self-aminoacylation (biotinyl-Met-oxazolone) of 1.52. It also gave a self-aminoacylation (biotinyl-Trp-oxazolone) of 1.44 and a self-aminoacylation (biotinyl-Leu-oxazolone) of 1.56.

For “AAGUCUGCUAAGAGUCGCAAG [Fam3.1 aminoacylation ribozyme variant]”, the self-aminoacylation (biotinyl-Val-oxazolone) was 0.861, the self-aminoacylation (biotinyl-Ile-oxazolone) was 0.836 and the self-aminoacylation (biotinyl-Met-oxazolone) was 1.21. The self-aminoacylation (biotinyl-Trp-oxazolone) was 1.92 and the self-aminoacylation (biotinyl-Leu-oxazolone) was 0.828.

“AAGUUAGCUAAUAGUCGAAAG [Fam3.1 aminoacylation ribozyme variant]” gave a self-aminoacylation (biotinyl-Val-oxazolone) of 1.02, a self-aminoacylation (biotinyl-Ile-oxazolone) of 1.27 and a self-aminoacylation (biotinyl-Met-oxazolone) of 1.52. The self-aminoacylation (biotinyl-Trp-oxazolone) was 1.89 and the self-aminoacylation (biotinyl-Leu-oxazolone) was 1.51.

“AAGUUAGCUAAUUGUCGCAAG [Fam3.1 aminoacylation ribozyme variant]” was tested, and the self-aminoacylation (biotinyl-Val-oxazolone) was 1.63, the self-aminoacylation (biotinyl-Ile-oxazolone) was 1.81 and the self-aminoacylation (biotinyl-Met-oxazolone) was 1.7. It also gave a self-aminoacylation (biotinyl-Trp-oxazolone) of 1.95 and a self-aminoacylation (biotinyl-Leu-oxazolone) of 1.91.

Sequence “AAGUUCGCUAGUAGUCGCAAG [Fam3.1 aminoacylation ribozyme variant]” has a self-aminoacylation (biotinyl-Val-oxazolone) of 1.28, a self-aminoacylation (biotinyl-Ile-oxazolone) of 1.81 and a self-aminoacylation (biotinyl-Met-oxazolone) of 0.987. The self-aminoacylation (biotinyl-Trp-oxazolone) was 1.33 and the self-aminoacylation (biotinyl-Leu-oxazolone) was 1.12.

In the case of “AAGUUGGCUAAUAGUUGCAAG [Fam3.1 aminoacylation ribozyme variant]”, the self-aminoacylation (biotinyl-Val-oxazolone) is reported as 1.29, the self-aminoacylation (biotinyl-Ile-oxazolone) is reported as 1.39 and the self-aminoacylation (biotinyl-Met-oxazolone) is reported as 1.53. It also gave a self-aminoacylation (biotinyl-Trp-oxazolone) of 1.92 and a self-aminoacylation (biotinyl-Leu-oxazolone) of 1.09.

“AAGUUGGCUAAUUGUCGCAAG [Fam3.1 aminoacylation ribozyme variant]” showed a self-aminoacylation (biotinyl-Val-oxazolone) of 1.71, a self-aminoacylation (biotinyl-Ile-oxazolone) of 1.99 and a self-aminoacylation (biotinyl-Met-oxazolone) of 1.93. It also gave a self-aminoacylation (biotinyl-Trp-oxazolone) of 2.71 and a self-aminoacylation (biotinyl-Leu-oxazolone) of 2.41.

With “AAGUUGUCUAAUAGUCGCAAG [Fam3.1 aminoacylation ribozyme variant]” the self-aminoacylation (biotinyl-Val-oxazolone) was 1.49, the self-aminoacylation (biotinyl-Ile-oxazolone) was 1.99 and the self-aminoacylation (biotinyl-Met-oxazolone) was 1.39. The self-aminoacylation (biotinyl-Trp-oxazolone) was 1.78 and the self-aminoacylation (biotinyl-Leu-oxazolone) was 1.44.

Sequence “AAGUUUGCGAAUAGUUGCAAG [Fam3.1 aminoacylation ribozyme variant]” has a self-aminoacylation (biotinyl-Val-oxazolone) of 0.803, a self-aminoacylation (biotinyl-Ile-oxazolone) of 0.915 and a self-aminoacylation (biotinyl-Met-oxazolone) of 1.2. For the same sequence, the self-aminoacylation (biotinyl-Trp-oxazolone) was 1.16 and the self-aminoacylation (biotinyl-Leu-oxazolone) was 0.661.

“AAGUUUGCGGAUAGUCGCAAG [Fam3.1 aminoacylation ribozyme variant]” gave a self-aminoacylation (biotinyl-Val-oxazolone) of 1.04, a self-aminoacylation (biotinyl-Ile-oxazolone) of 0.99 and a self-aminoacylation (biotinyl-Met-oxazolone) of 0.91. It also gave a self-aminoacylation (biotinyl-Trp-oxazolone) of 0.996 and a self-aminoacylation (biotinyl-Leu-oxazolone) of 1.31.

With “AAGUUUGCUAAUAGUCGCCUG [Fam3.1 aminoacylation ribozyme variant]” the self-aminoacylation (biotinyl-Val-oxazolone) was 1.27, the self-aminoacylation (biotinyl-Ile-oxazolone) was 1.66 and the self-aminoacylation (biotinyl-Met-oxazolone) was 1.18. For the same sequence, the self-aminoacylation (biotinyl-Trp-oxazolone) was 1.66 and the self-aminoacylation (biotinyl-Leu-oxazolone) was 1.43.

“AAGUUUGCUGACAGUCGCAAG [Fam3.1 aminoacylation ribozyme variant]” showed a self-aminoacylation (biotinyl-Val-oxazolone) of 1.11, a self-aminoacylation (biotinyl-Ile-oxazolone) of 1.03 and a self-aminoacylation (biotinyl-Met-oxazolone) of 1.32. The self-aminoacylation (biotinyl-Trp-oxazolone) was 1.45 and the self-aminoacylation (biotinyl-Leu-oxazolone) was 1.12.

Sequence “AAGUUUGGUAAGAGUCGCAAG [Fam3.1 aminoacylation ribozyme variant]” has a self-aminoacylation (biotinyl-Val-oxazolone) of 1.3, a self-aminoacylation (biotinyl-Ile-oxazolone) of 1.58 and a self-aminoacylation (biotinyl-Met-oxazolone) of 1.3. For the same sequence, the self-aminoacylation (biotinyl-Trp-oxazolone) was 1.31 and the self-aminoacylation (biotinyl-Leu-oxazolone) was 1.43.

“AAGUUUUCUAAUUGUCGCAAG [Fam3.1 aminoacylation ribozyme variant]” was tested, and the self-aminoacylation (biotinyl-Val-oxazolone) was 1.62, the self-aminoacylation (biotinyl-Ile-oxazolone) was 1.62 and the self-aminoacylation (biotinyl-Met-oxazolone) was 1.56. For the same sequence, the self-aminoacylation (biotinyl-Trp-oxazolone) was 1.82 and the self-aminoacylation (biotinyl-Leu-oxazolone) was 1.62.

For “AAUACCCUGGUCAUCGAGUUA [Fam2.1 aminoacylation ribozyme variant]”, the self-aminoacylation (biotinyl-Val-oxazolone) was 1.13, the self-aminoacylation (biotinyl-Ile-oxazolone) was 0.981 and the self-aminoacylation (biotinyl-Met-oxazolone) was 0.953. It also gave a self-aminoacylation (biotinyl-Trp-oxazolone) of 1.13 and a self-aminoacylation (biotinyl-Leu-oxazolone) of 1.01.

In the case of “AAUCACCUAGGUCAUCGUGUG [Fam2.2 aminoacylation ribozyme variant]”, the self-aminoacylation (biotinyl-Val-oxazolone) is reported as 1.06, the self-aminoacylation (biotinyl-Ile-oxazolone) is reported as 1.22 and the self-aminoacylation (biotinyl-Met-oxazolone) is reported as 1.44. It also gave a self-aminoacylation (biotinyl-Trp-oxazolone) of 1.41 and a self-aminoacylation (biotinyl-Leu-oxazolone) of 1.5.

“AAUUUUGCUAAUAGUCGCCAG [Fam3.1 aminoacylation ribozyme variant]” showed a self-aminoacylation (biotinyl-Val-oxazolone) of 1.66, a self-aminoacylation (biotinyl-Ile-oxazolone) of 1.78 and a self-aminoacylation (biotinyl-Met-oxazolone) of 1.47. For the same sequence, the self-aminoacylation (biotinyl-Trp-oxazolone) was 1.82 and the self-aminoacylation (biotinyl-Leu-oxazolone) was 1.52.

“AAUUUUGCUAAUGGUCGCAAG [Fam3.1 aminoacylation ribozyme variant]” was tested, and the self-aminoacylation (biotinyl-Val-oxazolone) was 1.4, the self-aminoacylation (biotinyl-Ile-oxazolone) was 1.66 and the self-aminoacylation (biotinyl-Met-oxazolone) was 1.33. It also gave a self-aminoacylation (biotinyl-Trp-oxazolone) of 1.83 and a self-aminoacylation (biotinyl-Leu-oxazolone) of 1.59.

Sequence “ACGUUAGCUAAUAGUCGCAAG [Fam3.1 aminoacylation ribozyme variant]” has a self-aminoacylation (biotinyl-Val-oxazolone) of 1.1, a self-aminoacylation (biotinyl-Ile-oxazolone) of 1.75 and a self-aminoacylation (biotinyl-Met-oxazolone) of 1.89. It also gave a self-aminoacylation (biotinyl-Trp-oxazolone) of 0.7 and a self-aminoacylation (biotinyl-Leu-oxazolone) of 1.65.

Sequence “ACGUUUGCUAAUAGUGGCAAG [Fam3.1 aminoacylation ribozyme variant]” has a self-aminoacylation (biotinyl-Val-oxazolone) of 0.741, a self-aminoacylation (biotinyl-Ile-oxazolone) of 0.853 and a self-aminoacylation (biotinyl-Met-oxazolone) of 0.75. For the same sequence, the self-aminoacylation (biotinyl-Trp-oxazolone) was 0.59 and the self-aminoacylation (biotinyl-Leu-oxazolone) was 0.804.

For “ACUACCCUGGUCAUCGACUGA [Fam2.1 aminoacylation ribozyme variant]”, the self-aminoacylation (biotinyl-Val-oxazolone) was 0.854, the self-aminoacylation (biotinyl-Ile-oxazolone) was 0.918 and the self-aminoacylation (biotinyl-Met-oxazolone) was 1.09. For the same sequence, the self-aminoacylation (biotinyl-Trp-oxazolone) was 0.51 and the self-aminoacylation (biotinyl-Leu-oxazolone) was 0.769.

For “ACUACCCUGGUCGUCGAGUGA [Fam2.1 aminoacylation ribozyme variant]”, the self-aminoacylation (biotinyl-Val-oxazolone) was 1.19, the self-aminoacylation (biotinyl-Ile-oxazolone) was 1.17 and the self-aminoacylation (biotinyl-Met-oxazolone) was 1.49. It also gave a self-aminoacylation (biotinyl-Trp-oxazolone) of 0.701 and a self-aminoacylation (biotinyl-Leu-oxazolone) of 1.95.

Sequence “ACUCACCUAGGUCAUCGUGUG [Fam2.2 aminoacylation ribozyme variant]” has a self-aminoacylation (biotinyl-Val-oxazolone) of 1.09, a self-aminoacylation (biotinyl-Ile-oxazolone) of 1.21 and a self-aminoacylation (biotinyl-Met-oxazolone) of 0.925. It also gave a self-aminoacylation (biotinyl-Trp-oxazolone) of 0.891 and a self-aminoacylation (biotinyl-Leu-oxazolone) of 1.34.
